# Patent EP4595966A1, “USE OF NPY/Y5R INHIBITOR IN TREATING LIVER METASTASIS” (Friedrich-Alexander-Universität Erlangen-Nürnberg, priority 2024, dated 2025)
# Test system: B16 melanoma cells (liver metastasis)
# Assay: Spleen-liver metastasis model with Y5R inhibitor treatment
# Assay type: in vivo, C57BL/6 mice
# Excerpt: • Figure 1 A-B. Boyden chamber analysis and representative images (10-fold original magnification) of chemotaxis of human melanoma cells (SkMel28) towards recombinant NPY (lower chamber) with or without application of Y5R specific inhibitor CGP71683 (Y5Ri) (upper chamber) compared to migration towards serum free medium (n = 9). Arrowheads indicate migrated cells. • Figure 2. Representative images of colony number and colony size of human melanoma cells (SkMel28) in clonogenicity assays with application of increasing concentrations of Y5R inhibitor (Y5Ri) (n = 3). • Figure 3. Schematic illustration of the experimental procedure: splenic injection of murine melanoma cells (B16) in C57BL/6 mice on day 0; intraperitoneal injection of Y5R inhibitor CGP71683 (Y5Ri) (15 mg/kg body weight per injection) or solvent only (DMSO) as control on indicated days; end of experiment eight days after cell implantation. • Figure 4. Explanted metastases bearing spleens and livers of DMSO (control) and Y5Ri treated mice after splenic injection of B16 melanoma cells. • Figure 5. Macroscopic classification of livers from DMSO (n = 11) and Y5Ri treated mice (n = 9) into very low / low versus moderate / high liver metastasis. • Figure 6. A. CHK2 level in NPY^-/- mice compared to control WT mice measured by IHC analysis. B. CHK2 level in Y5Ri-treated mice compared to control DMSO-treated mice measured by IHC analysis. • Figure 7. […] A. Quantification of NPY mRNA expression levels in liver tissues from mice treated with control LNPs ("Control", LNPs bearing control siRNA pool, n = 11) and from mice treated with LNPs bearing siRNA pool targeting murine NPY ("LNP-siNPY", n = 11). B. Quantification of NPY protein levels in liver tissues from mice treated with control LNPs (n = 11) and LNP-siNPY treated mice (n = 11). • Figure 9 A-B. ELISA based protein expression analysis of absolute NPY levels in liver tissues and serum samples from LNP-siNPY treated mice (n = 10) compared to mice treated with control LNPs (LNPs bearing control siRNA pool, n = 11) after splenic melanoma cell injection. • Figure 10. […] A. Quantification of number of metastases in liver tissues from LNP-siNPY treated mice (n = 10) compared to mice treated with control LNPs (LNPs bearing control siRNA pool, n = 11). B. Quantification of metastases size in liver tissues from LNP-siNPY treated mice (n = 10) compared to mice treated with control LNPs (LNPs bearing control siRNA pool, n = 11). • Figure 13. […] A. Quantification of pERK protein expression in metastatic liver tissue samples of LNP-siNPY treated mice (n = 6) compared to mice treated with control LNPs (LNPs bearing control siRNA pool, n = 6). […]
smiles,measurement,setting,value
"Nc1nc(NC[C@H]2CC[C@H](CNS(=O)(=O)c3cccc4ccccc34)CC2)nc2ccccc12 [Y5Ri, N-[[trans-4-[[(4-amino-2-quinazolinyl)amino]methyl]cyclohexyl]methyl]-1-naphthalenesulfonamide]",Y2R and Y5R expression levels in liver metastatic tissues,mRNA levels,did not affect
same,"immunohistochemical staining of CD3, CD4 and CD8 of liver metastatic tissues (immune cell infiltration/inflammation)",treated mice vs controls,no evidence for NPY-Y5R-signaling associated effects on immune cell infiltration/inflammation
same,NPY and Y1R expression in liver metastatic tissues,upon Y5Ri treatment,upregulated
same,systemic NPY levels,upon Y5Ri treatment,upregulated
